# ± gives the standard deviation of the averaged measurements. The list shows a part of the results.
# Molecular target: T1, TMEM43 (UniProt Q9BTV4)
# T1 sequence (whole entry): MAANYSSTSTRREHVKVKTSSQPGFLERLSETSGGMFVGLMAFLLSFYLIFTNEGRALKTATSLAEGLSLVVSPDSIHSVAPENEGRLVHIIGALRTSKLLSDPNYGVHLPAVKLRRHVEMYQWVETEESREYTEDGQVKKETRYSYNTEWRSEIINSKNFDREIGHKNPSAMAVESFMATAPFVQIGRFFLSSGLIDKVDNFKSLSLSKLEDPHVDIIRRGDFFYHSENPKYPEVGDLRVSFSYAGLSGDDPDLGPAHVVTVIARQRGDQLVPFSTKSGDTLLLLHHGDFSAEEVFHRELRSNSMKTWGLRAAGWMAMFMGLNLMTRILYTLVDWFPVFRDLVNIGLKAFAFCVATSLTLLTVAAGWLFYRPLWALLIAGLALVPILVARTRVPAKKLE
# Experiment: NP40-soluble protein abundance relative to vehicle (solubility fold change) (ratio); higher = more soluble protein in presence of GTP
# Experimental: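 Solubility proteome profiling in Jurkat crude lysate. Lysate was treated with Mg-GTP (0.1-10 mM) for 10 min at room temperature and 3 min at 37 °C, then solubilised with 0.8% NP40 and benzonase, followed by ultracentrifugation. Proteins were quantified by TMT10 LC-MS/MS; the value is the NP40-soluble abundance relative to the NP40-processed vehicle, from 3 independent experiments.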
compound,measurement,setting,value
Nc1nc2c(ncn2[C@@H]2O[C@H](COP(=O)(O)OP(=O)(O)OP(=O)(O)O)[C@@H](O)[C@H]2O)c(=O)[nH]1 [guanosine triphosphate],NP40-soluble protein abundance,concentration: 0.1mM,1.09 ± 0.18
same,NP40-soluble protein abundance,concentration: 0.5mM,1.14 ± 0.18
same,NP40-soluble protein abundance,concentration: 1mM,0.975 ± 0.15
same,NP40-soluble protein abundance,concentration: 2mM,1.05 ± 0.23
same,NP40-soluble protein abundance,concentration: 4mM,0.985 ± 0.19
same,NP40-soluble protein abundance,concentration: 6mM,1.01 ± 0.16
same,NP40-soluble protein abundance,concentration: 8mM,0.929 ± 0.11
same,NP40-soluble protein abundance,concentration: 10mM,0.937 ± 0.15

# Already shown: entries from further up.
compound,measurement,setting,value
Nc1nc2c(ncn2[C@@H]2O[C@H](COP(=O)(O)OP(=O)(O)OP(=O)(O)O)[C@@H](O)[C@H]2O)c(=O)[nH]1 [guanosine triphosphate],NP40-soluble protein abundance,concentration: 0.1mM,1.09 ± 0.18
same,NP40-soluble protein abundance,concentration: 0.5mM,1.14 ± 0.18

# From the supplement of paper PMC6411743
